# Test results from the supplement of paper PMC3334620.
# Whole data set: some 33,000 sequences, median “E-score (-0.5 to 0.5)” near -0.015, cut for the highest 2% near 0.3. The list shows a part of the results.
# Target: T1, Abf1 (UniProt P14164)
# T1 sequence: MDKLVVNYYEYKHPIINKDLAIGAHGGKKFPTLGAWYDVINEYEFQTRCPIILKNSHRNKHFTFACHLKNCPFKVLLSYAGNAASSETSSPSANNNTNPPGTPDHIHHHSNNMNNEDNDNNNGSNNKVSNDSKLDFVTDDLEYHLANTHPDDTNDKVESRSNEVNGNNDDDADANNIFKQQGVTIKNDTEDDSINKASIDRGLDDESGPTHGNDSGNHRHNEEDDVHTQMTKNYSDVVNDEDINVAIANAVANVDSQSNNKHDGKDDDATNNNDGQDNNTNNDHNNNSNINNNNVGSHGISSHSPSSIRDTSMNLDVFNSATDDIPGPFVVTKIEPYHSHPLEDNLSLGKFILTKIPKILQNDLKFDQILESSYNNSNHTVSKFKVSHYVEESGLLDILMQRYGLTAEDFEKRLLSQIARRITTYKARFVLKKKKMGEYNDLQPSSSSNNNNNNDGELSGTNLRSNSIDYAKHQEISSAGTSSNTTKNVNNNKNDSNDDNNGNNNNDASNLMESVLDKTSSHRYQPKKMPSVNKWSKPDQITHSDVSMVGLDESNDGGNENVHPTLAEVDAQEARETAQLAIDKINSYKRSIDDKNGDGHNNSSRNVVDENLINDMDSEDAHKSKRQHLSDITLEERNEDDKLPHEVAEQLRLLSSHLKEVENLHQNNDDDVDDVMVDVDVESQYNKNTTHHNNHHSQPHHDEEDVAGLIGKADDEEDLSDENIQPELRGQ
# Assay: PBM E-score (8-mer binding enrichment) (E-score (-0.5 to 0.5)); higher = stronger / more preferred TF binding
# Conditions: protein concentration: 200 nM; construct: GST-full length
# Protocol: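 Universal 'all 10-mer' protein binding microarrays (Agilent AMADID 015681) probed with GST-tagged S. cerevisiae TFs (full-length or DBD) made by in vitro transcription/translation (PURExpress), about 100-200 nM. Bound TF was detected with fluorescent anti-GST. Each ungapped 8-mer (which stands for itself and its reverse complement) is scored by the PBM enrichment score (E-score), a modified Wilcoxon-Mann-Whitney statistic from -0.5 to +0.5, computed with the Universal PBM Analysis Suite. Scale: above 0.35 generally sequence-specific binding.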
row,Sequence,PBM E-score
1,GAGATCCC,0.0352
2,AGGCCGCC,-0.174
3,CGTTAAGA,0.248
4,CTCACAAC,0.00328
5,ATCCTCGA,0.105
6,TAATCGGA,0.0729
7,TGTGGTAA,0.0219
8,AGTCACAT,0.0571
9,ATGGTCAC,0.141
10,AACCGGAC,-0.154
11,CGCGAGAG,-0.105
12,ACGGAAAA,0.187
13,CCACAGAG,-0.0437
14,CCAAAACA,-0.0686
15,TCTATGAA,0.0829
16,ATCCCAGA,-0.198
17,GGCTGCAA,-0.111
18,ACCTGCCA,-0.0113
19,TGCTTCAA,-0.055
20,ACATTCCA,-0.0289
21,TAAAACGA,0.159
22,CAATGTAA,0.0165
23,AATAGAGT,-0.111
24,CAAGTGAG,0.0165
25,ACAACCAG,-0.0761

row,Sequence,PBM E-score
1,ATGTACCC,-0.113
2,TCATGACA,0.323
3,CCTGAAGA,-0.0909
4,GAACGACC,-0.0103
5,ATTAATCA,0.257
6,AGCAGGGA,0.0538
7,AAAACCGA,0.0815
8,AATCGAGG,-0.107
9,AATGTCTG,0.0426
10,CGCGATGA,0.174
11,CTCCACAG,-0.222
12,TCCCGTCA,0.0971
13,CCCATCCC,-0.282
14,CAGCAGAA,-0.0959
15,GCGTCGAA,0.0222
16,CCTGCGAA,0.0529
17,CTAACTAG,0.0528
18,ATGGCAAA,-0.0363
19,AACATGAG,-0.0788
20,CTACACGA,0.247
21,AAACATCC,0.0303
22,AGGCACAT,-0.0983
23,CACACACA,-0.0651
24,CGCATGAA,-0.0897
25,AGAAGAAC,0.0449

row,Sequence,PBM E-score
1,AATGTATC,0.241
2,AAGGCGAC,-0.174
3,CGTTGTGC,0.0413
4,CTATCGGC,-0.283
5,CACACTCG,0.139
6,CAGCTGAC,-0.0631
7,ACGGCAGT,0.25
8,ATCCACAA,-0.138
9,CACGTCGC,0.16
10,GCAGGAGC,-0.0996
11,GAGATATA,0.147
12,ATTCCTTC,-0.0137
13,GGAAACAA,-0.0829
14,AATACGGC,0.32
15,AGTTGTGA,0.168
16,ACGAATAC,0.201
17,CCAAACAA,0.0866
18,ACACCATG,-0.024
19,GATCAGAC,-0.109
20,AAGCCTCG,0.0393
21,CCTTGTAA,0.0623
22,CCGCCCGC,-0.217
23,ATTATTGC,0.0704
24,CCCGGCTC,-0.259
25,CGAGCGTC,-0.171

row,Sequence,PBM E-score
1,CCTTCGAA,-0.221
2,AGACTCTA,-0.143
3,AACAATCC,-0.00262
4,CAATCAAA,0.156
5,CCCCTGTA,-0.0606
6,CGGCTGTC,-0.181
7,ACACTAAT,0.0747
8,TAGATTAA,0.19
9,ATTATAAT,0.214
10,CTTGTGGC,-0.105
11,GGGTCTTA,-0.183
12,CACGGCAC,0.214
13,ACAATCAG,-0.0246
14,CACTTAAC,0.0152
15,ACCTCCGT,0.102
16,GTACGTTA,0.229
17,CCAGAAAC,-0.138
18,CTTATACC,0.0796
19,AGTCTAAA,-0.0752
20,ACGCCAGT,-0.217
21,ACCAACTC,0.00329
22,GTTTCGTA,0.26
23,CTTCCGAC,0.0551
24,GGGGCCCC,-0.196
25,AAGTTGCA,-0.12

row,Sequence,PBM E-score
1,GAAGCAAA,-0.0207
2,AAGCGGCA,0.00937
3,AACCCAAG,-0.0477
4,CAGTAGGC,-0.0385
5,AGTACGAT,0.106
6,CGGGGCGA,0.0363
7,CTCGAGAC,0.234
8,ATCAACTC,0.0915
9,TGTACGAA,0.427
10,CCGCGCGA,0.0788
11,GTTATATA,0.0142
12,CTTCCCCA,-0.189
13,AGAATGGA,0.101
14,CCAATTTA,0.196
15,AGCCTGCA,0.0184
16,CTATATAG,-0.0885
17,ATTGCCGA,-0.0295
18,AACGCCTC,-0.28
19,CCAGTAAC,-0.135
20,GGTGTACA,-0.178
21,CTAAAGTA,-0.0113
22,CAGGGGCG,-0.36
23,ATCGCAAG,-0.137
24,ACCCGTAG,-0.248
25,ACAACCTC,0.0346

row,Sequence,PBM E-score
1,CGCTTATC,0.0331
2,GCGTGTGA,-0.00541
3,TTCATGAA,0.0994
4,AACGACCT,0.114
5,CTGTGTGA,-0.165
6,CATTGCGG,-0.094
7,CGCTACCG,-0.057
8,GGTCTCTA,-0.0248
9,AGCATAGC,-0.149
10,GGAGTAAC,-0.179
11,AGCGATCA,0.158
12,CAGCGCGA,-0.135
13,TGCCGGCA,-0.0454
14,CATGGGGG,-0.347
15,GCATCCCA,-0.239
16,GGTTGGTA,0.0354
17,AAAGCAGG,0.134
18,CAGCTCTA,-0.15
19,CTATGATA,0.143
20,GCCCCGAA,-0.0285
21,ACTTCTTA,0.194
22,TACTGAGA,-0.151
23,GTGCAGGA,-0.144
24,AAGTTCCG,-0.0595
25,AAACGGGA,0.0928

# As entered above.
# CTGTGTGA – PBM E-score: -0.165
# TACTGAGA – PBM E-score: -0.151
# CAGCTCTA – PBM E-score: -0.15
# GGAGTAAC – PBM E-score: -0.179
# CAGCGCGA – PBM E-score: -0.135
# CGCTACCG – PBM E-score: -0.057

# (list continues)

row,Sequence,PBM E-score
1,AAGCTCCT,-0.111
2,AAAAATCG,-0.0187
3,GGGGGGCA,-0.259
4,GGCCGTTA,0.0827
5,ACCCCAGT,-0.145
6,AGATGATG,0.216
7,CAGGTAGA,-0.217
8,CTTCCATA,-0.143
9,CAGGAAGG,-0.2
10,GTCGTTTA,0.298
11,CAGTCTAA,-0.0633
12,TCGGTAGA,-0.00211
13,GGCTAGCC,-0.126
14,AGTTAACG,0.155
15,ACGGGCTG,0.0917
16,TGACCCCA,-0.063
17,AGAGGGAG,-0.218
18,AAAATCTT,-0.0471
19,CTTAGCTC,-0.286
20,GGGCATTA,-0.102
21,AATTACCT,0.0245
22,CCTTCCAC,-0.249

# Shown as tab-separated lines: part of the list above.
row	Sequence	PBM E-score
11	GTTATATA	0.0142
12	CTTCCCCA	-0.189
13	AGAATGGA	0.101
